From article doi:10.1101/2021.08.05.455304
No constants are given. Whether binding was seen depends on the method and setting. Some results given as binding are weak or reduced against the parent protein; the word gives no strength.

The chains behind the UniProt entries cited, without tags or fusion partners. Where a name states a change or a piece, a line headed by the entry shows the natural chain unless it says otherwise.
UniProt O96008: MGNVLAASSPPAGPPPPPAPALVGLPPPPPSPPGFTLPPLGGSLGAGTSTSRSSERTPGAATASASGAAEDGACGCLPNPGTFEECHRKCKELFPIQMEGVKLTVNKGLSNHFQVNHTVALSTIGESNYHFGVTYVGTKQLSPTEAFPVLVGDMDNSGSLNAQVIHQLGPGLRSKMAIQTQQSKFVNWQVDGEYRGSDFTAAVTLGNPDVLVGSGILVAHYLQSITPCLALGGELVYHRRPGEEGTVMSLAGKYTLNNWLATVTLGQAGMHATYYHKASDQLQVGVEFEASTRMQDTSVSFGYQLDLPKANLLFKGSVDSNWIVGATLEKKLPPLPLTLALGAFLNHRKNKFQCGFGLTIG
UniProt Q9BXM7: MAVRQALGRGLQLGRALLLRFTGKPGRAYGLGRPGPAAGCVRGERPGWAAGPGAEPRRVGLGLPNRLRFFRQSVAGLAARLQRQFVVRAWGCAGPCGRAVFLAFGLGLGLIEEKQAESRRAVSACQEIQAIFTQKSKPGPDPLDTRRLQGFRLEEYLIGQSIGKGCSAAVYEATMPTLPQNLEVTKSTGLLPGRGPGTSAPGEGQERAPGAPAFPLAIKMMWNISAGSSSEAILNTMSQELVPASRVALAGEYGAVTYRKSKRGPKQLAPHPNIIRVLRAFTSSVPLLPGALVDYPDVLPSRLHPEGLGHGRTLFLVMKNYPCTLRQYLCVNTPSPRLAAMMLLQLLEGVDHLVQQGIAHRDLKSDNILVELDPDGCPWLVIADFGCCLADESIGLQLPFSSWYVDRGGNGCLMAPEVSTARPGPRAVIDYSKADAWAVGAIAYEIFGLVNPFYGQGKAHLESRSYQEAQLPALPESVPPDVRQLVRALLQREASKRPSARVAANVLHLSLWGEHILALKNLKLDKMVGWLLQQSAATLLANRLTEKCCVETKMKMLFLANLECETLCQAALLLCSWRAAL

Target: Translocase of the Outer Mitochondrial Membrane (TOM) complex (human (endogenous in U2OS)) (UniProt O96008)
Test: native gel or EMSA

binding: binds
Substance: human PINK1(WT)-3HA (from UniProt Q9BXM7 1-581) (enzyme)
